# Measured values taken from ChEMBL document CHEMBL4303122, “Identification of potential treatments for COVID-19 through artificial intelligence-enabled phenomic analysis of human cells infected with SARS-CoV-2” (2020).
# In all, about 1,600 compounds were measured (“Hit score”: median about 0.13, highest 2% from about 0.46 on). The list shows a part of the results.
# Tested on: SARS-CoV-2
# Test: Antiviral activity against SARS-CoV-2 (USA-WA1/2020 strain) measured by imaging in HRCE cells at MOI 0.4 after 96 hrs (reported as hit score from 0-1 for on-disease vs off-disease activity: scores >0.6 considered hits)
# Assay type: functional, Homo sapiens
row,Compound,Hit score
1,CN1CCC(=C2c3ccccc3Sc3ccccc32)CC1 [PIMETHIXENE],0.1216
2,CC(C)(C)NC(=O)N[C@H](C(=O)N1C[C@H]2[C@@H]([C@H]1C(=O)NC(CC1CCC1)C(=O)C(N)=O)C2(C)C)C(C)(C)C (some centres not stated) [BOCEPREVIR],0.1287
3,O=c1[nH]c2ccccc2n1CCCN1CCN(C(c2ccccc2)c2ccccc2)CC1 [OXATOMIDE],-0.02938
4,CC(C)[N+](C)(CCC(C(N)=O)(c1ccccc1)c1ccccc1)C(C)C [ISOPROPAMIDE],0.2678
5,CC(=O)OCC1=C(C(=O)O)N2C(=O)[C@@H](NC(=O)CSc3ccncc3)[C@H]2SC1.CC(=O)OCC1=C(C(=O)O)N2C(=O)[C@@H](NC(=O)CSc3ccncc3)[C@H]2SC1.c1ccc(CNCCNCc2ccccc2)cc1 [CEPHAPIRIN BENZATHINE],0.1882
6,CC(=O)[C@@]1(O)CC[C@H]2[C@@H]3CCC4=CC(=O)CCC4=C3[C@@H](c3ccc(N(C)C)cc3)C[C@@]21C [ULIPRISTAL],0.1448
7,O=C(O)c1ccccc1C(=O)Nc1ccc(S(=O)(=O)Nc2nccs2)cc1 [PHTHALYLSULFATHIAZOLE],0.0541
8,O=c1[nH]c2ccccc2n1CCCN1CCC(n2c(=O)[nH]c3cc(Cl)ccc32)CC1 [DOMPERIDONE],0.1608
9,OCCN(CCO)c1nc(N2CCCCC2)c2nc(N(CCO)CCO)nc(N3CCCCC3)c2n1 [DIPYRIDAMOLE],0.178
10,CC/C=C(\C(=O)N[C@@H]1C(=O)N2C(C(=O)OCOC(=O)C(C)(C)C)=C(COC(N)=O)CS[C@H]12)c1csc(N)n1.Cl.O,0.1129
11,CN1CCN(C(c2ccccc2)c2ccccc2)CC1 [CYCLIZINE],0.1379
12,O=C(/C=C\n1cnc(-c2cc(C(F)(F)F)cc(C(F)(F)F)c2)n1)N1CC(F)(F)C1,0.328
13,CN(CC(=O)O)C(=N)N [CREATINE],0.1325
14,c1ccc2c(CC3=NCCN3)cccc2c1 [NAPHAZOLINE],0.002061
15,CCN(CC)CC(=O)Nc1c(C)cccc1C [LIDOCAINE],0.1688
16,C=C[C@H]1CN2CC[C@H]1C[C@H]2[C@H](OC(=O)OCC)c1ccnc2ccc(OC)cc12 [QUININE ETHYLCARBONATE],0.1872
17,O=C1NS(=O)(=O)c2ccccc21 [SACCHARIN],0.1191
18,CC(=O)CC(c1ccccc1)c1c(O)c2ccccc2oc1=O (configuration not stated) [WARFARIN],0.06756
19,CC(C)COc1ccc(CNC(=O)N(Cc2ccc(F)cc2)C2CCN(C)CC2)cc1 [PIMAVANSERIN],-0.09171
20,CO[C@@H]1[C@@H](O[C@@H]2O[C@H](C)[C@@H](O[C@H]3C[C@@](C)(O)[C@@H](OC(=O)CC(C)C)[C@H](C)O3)[C@H](N(C)C)[C@H]2O)[C@@H](CC=O)C[C@@H](C)[C@@H](O)/C=C/C=C/C[C@@H](C)OC(=O)C[C@H]1OC(C)=O [JOSAMYCIN],0.08039
21,NC(=O)NCCC[C@H](N)C(=O)O [L-CITRULLINE],0.1542

# Pulled by compound from the list above:
row,Compound,Hit score
5,CC(=O)OCC1=C(C(=O)O)N2C(=O)[C@@H](NC(=O)CSc3ccncc3)[C@H]2SC1.CC(=O)OCC1=C(C(=O)O)N2C(=O)[C@@H](NC(=O)CSc3ccncc3)[C@H]2SC1.c1ccc(CNCCNCc2ccccc2)cc1 [CEPHAPIRIN BENZATHINE],0.1882
9,OCCN(CCO)c1nc(N2CCCCC2)c2nc(N(CCO)CCO)nc(N3CCCCC3)c2n1 [DIPYRIDAMOLE],0.178

# Further structures.

row,Compound,Hit score
1,COc1ccc2c3c1O[C@H]1C[C@@H](O)C=C[C@@]31CCN(C)C2 [GALANTAMINE],0.2532
2,CNC(=O)c1cc(Oc2ccc(NC(=O)Nc3ccc(Cl)c(C(F)(F)F)c3)cc2)ccn1 [SORAFENIB],0.2484
3,COc1cccc2c1C(=O)c1c(O)c3c(c(O)c1C2=O)C[C@@](O)(C(C)=O)C[C@@H]3O[C@H]1C[C@H](N)[C@H](O)[C@H](C)O1 [DAUNORUBICIN],-0.08012
4,CN(C)CCn1nnnc1SCC1=C(C(=O)O)N2C(=O)[C@@H](NC(=O)Cc3csc(N)n3)[C@H]2SC1 [CEFOTIAM],0.003068
5,O=C(O)[C@H](CC(=O)N1C[C@H]2CCCC[C@H]2C1)Cc1ccccc1 [MITIGLINIDE],0.1383
6,Cc1cn([C@H]2C=C[C@@H](CO)O2)c(=O)[nH]c1=O [STAVUDINE],0.0534
7,CC(=O)NS(=O)(=O)c1ccc(N)cc1 [SULFACETAMIDE],0.2126
8,NS(=O)(=O)c1cc2c(cc1C(F)(F)F)NCNS2(=O)=O [HYDROFLUMETHIAZIDE],0.1879
9,N[C@@H](CCN[C@@H](CCN1CC[C@H]1C(=O)O)C(=O)O)C(=O)O,0.1041
10,N[C@@H](Cc1c[nH]c2ccccc12)C(=O)O [TRYPTOPHAN],0.2037
11,CN1C[C@H](CNC(=O)OCc2ccccc2)C[C@@H]2c3cccc4c3c(cn4C)C[C@H]21 [METERGOLINE],0.1289
12,CC(O)Cn1cnc2c1c(=O)n(C)c(=O)n2C (configuration not stated) [PROXYPHYLLINE],0.05419
13,CS(=O)(=O)OCCCCOS(C)(=O)=O [BUSULFAN],0.105
14,Cc1c(NC(=O)c2cccnc2)c(=O)n(-c2ccccc2)n1C [NIFENAZONE],0.01839
15,CC[C@@H]1C(=O)OC[C@@H]1Cc1cncn1C [PILOCARPINE],0.1136
16,CC(C)(CO)c1cc2cc(NC(=O)C3(c4ccc5c(c4)OC(F)(F)O5)CC3)c(F)cc2n1C[C@@H](O)CO [TEZACAFTOR],0.1873
17,COc1cc2nccc(Oc3ccc(NC(=O)NC4CC4)c(Cl)c3)c2cc1C(N)=O [LENVATINIB],0.3778
18,C[C@@H](O[C@H]1OCCN(Cc2nn(P(=O)(O)O)c(=O)[nH]2)[C@H]1c1ccc(F)cc1)c1cc(C(F)(F)F)cc(C(F)(F)F)c1 [FOSAPREPITANT],0.000417
19,CCC(C)(Oc1ccc(C2(c3ccc(OC(C)(CC)C(=O)O)cc3)CCCCC2)cc1)C(=O)O (configuration not stated) [CLINOFIBRATE],0.1194
20,CN(C)/C=N/c1c(I)cc(I)c(CCC(=O)O)c1I [IPODATE],0.09433
21,CCCCC[C@H](O)/C=C/[C@H]1[C@H](O)CC(=O)[C@@H]1C/C=C\CCCC(=O)O [DINOPROSTONE],0.143
